Experimental data from patent US20250154202A1 (BIONTECH SE, priority 2022, published 2025).

Test system: anti-ALFA VHH
Test: binding affinity to the anti-ALFA VHH (log(agonist) vs. response, variable slope)
Settings: best-fit values

Row | Molecule | HillSlope
1 | CC(=O)N[C@@H](CO)C(=O)N[C@@H](CCCNC(=N)N)C(=O)N[C@@H](CC(C)C)C(=O)N[C@@H](CCC(=O)O)C(=O)N[C@H]1CCC(=O)NCCCC[C@@H](C(=O)N[C@@H](CCCNC(=N)N)C(=O)N[C@@H](CC(C)C)C(=O)N[C@H](C(=O)N[C@@H](CCC(=O)O)C(N)=O)[C@@H](C)O)NC(=O)[C@H](CCCNC(=N)N)NC(=O)[C@H](CC(C)C)NC(=O)[C@H](CCC(=O)O)NC1=O [SD15194, Ac-Ser-Arg-Leu-Glu-(cyclo5)Glu-Glu-Leu-Arg-(cyclo9)Lys-Arg-Leu-Thr-Glu-NH2] (Ac-SRLEEELRKRLTE-NH2; lactam 5-9) | −0.9926
2 | CC(=O)N[C@@H](CO)C(=O)N[C@@H](CCCNC(=N)N)C(=O)N[C@@H](CC(C)C)C(=O)N[C@@H](CCC(=O)O)C(=O)N[C@H]1CCC(=O)NCCCC[C@@H](C(=O)N[C@@H](CCCNC(=N)N)C(=O)N[C@@H](CCCNC(=N)N)C(=O)N[C@@H](CC(C)C)C(=O)N[C@H](C(=O)N[C@@H](CCC(=O)O)C(N)=O)[C@@H](C)O)NC(=O)[C@H](CC(C)C)NC(=O)[C@H](CCC(=O)O)NC1=O [SD15192, Ac-Ser-Arg-Leu-Glu-(cyclo5)Glu-Glu-Leu-(cyclo8)Lys-Arg-Arg-Leu-Thr-Glu-NH2] (Ac-SRLEEELKRRLTE-NH2; lactam 5-8) | −0.9841
3 | Ac-SRLEEELRRRLTE-NH2 [SD15197, Ac-Ser-Arg-Leu-Glu-Glu-Glu-Leu-Arg-Arg-Arg-Leu-Thr-Glu-NH2, reference compound] | −1.670
4 | CC(=O)N[C@@H](CO)C(=O)N[C@@H](CCCNC(=N)N)C(=O)N[C@@H](CC(C)C)C(=O)N[C@@H](CCC(=O)O)C(=O)N[C@@H](CCC(=O)O)C(=O)N[C@@H](CCC(=O)O)C(=O)N[C@@H](CC(C)C)C(=O)N[C@@H](CCCNC(=N)N)C(=O)N[C@H]1CCCCNC(=O)CC[C@@H](C(N)=O)NC(=O)[C@H]([C@@H](C)O)NC(=O)[C@H](CC(C)C)NC(=O)[C@H](CCCNC(=N)N)NC1=O [SD15193, Ac-Ser-Arg-Leu-Glu-Glu-Glu-Leu-Arg-(cyclo9)Lys-Arg-Leu-Thr-(cyclo13)Glu-NH2] (Ac-SRLEEELRKRLTE-NH2; lactam 9-13) | −0.8859
5 | CC(=O)N[C@@H](CO)C(=O)N[C@@H](CCCNC(=N)N)C(=O)N[C@@H](CC(C)C)C(=O)N[C@@H](CCC(=O)O)C(=O)N[C@H]1CC(=O)NCCCC[C@@H](C(=O)N[C@@H](CCCNC(=N)N)C(=O)N[C@@H](CC(C)C)C(=O)N[C@H](C(=O)N[C@@H](CCC(=O)O)C(N)=O)[C@@H](C)O)NC(=O)[C@H](CCCNC(=N)N)NC(=O)[C@H](CC(C)C)NC(=O)[C@H](CCC(=O)O)NC1=O [SD15196, Ac-Ser-Arg-Leu-Glu-(cyclo5)Asp-Glu-Leu-Arg-(cyclo9)Lys-Arg-Leu-Thr-Glu-NH2] (Ac-SRLEDELRKRLTE-NH2; lactam 5-9) | −0.7157

Test system: not listed separately
Test: general procedure: Fmoc solid-phase peptide synthesis; Sieber Amide resin, 100-200 mesh; DIC/Oxyma + DIEA
Settings: whole synthesis, UV214, scale of the general procedure 0.1 mmol, Acetate

Row | Molecule | final HPLC purity [%]
6 | Ac-PSRLEEELRKRLTE-NH2 (lactam 6-10; SMILES CC(=O)N1CCC[C@H]1C(=O)N[C@@H](CO)C(=O)N[C@@H](CCCNC(=N)N)C(=O)N[C@@H](CC(C)C)C(=O)N[C@@H](CCC(=O)O)C(=O)N[C@H]1CCC(=O)NCCCC[C@@H](C(=O)N[C@@H](CCCNC(=N)N)C(=O)N[C@@H](CC(C)C)C(=O)N[C@H](C(=O)N[C@@H](CCC(=O)O)C(N)=O)[C@@H](C)O)NC(=O)[C@H](CCCNC(=N)N)NC(=O)[C@H](CC(C)C)NC(=O)[C@H](CCC(=O)O)NC1=O) | 100

Same assay, conditions: whole synthesis, UV214, scale of the general procedure 0.1 mmol, TFA

Row | Molecule | final HPLC purity [%]
7 | Ac-PSRLEKELRERLTE-NH2 (lactam 6-10; SMILES CC(=O)N1CCC[C@H]1C(=O)N[C@@H](CO)C(=O)N[C@@H](CCCNC(=N)N)C(=O)N[C@@H](CC(C)C)C(=O)N[C@@H](CCC(=O)O)C(=O)N[C@H]1CCCCNC(=O)CC[C@@H](C(=O)N[C@@H](CCCNC(=N)N)C(=O)N[C@@H](CC(C)C)C(=O)N[C@H](C(=O)N[C@@H](CCC(=O)O)C(N)=O)[C@@H](C)O)NC(=O)[C@H](CCCNC(=N)N)NC(=O)[C@H](CC(C)C)NC(=O)[C@H](CCC(=O)O)NC1=O) | 94
8 | Ac-SRLEEELRKRLTE-NH2 (lactam 9-13; SMILES CC(=O)N[C@@H](CO)C(=O)N[C@@H](CCCNC(=N)N)C(=O)N[C@@H](CC(C)C)C(=O)N[C@@H](CCC(=O)O)C(=O)N[C@@H](CCC(=O)O)C(=O)N[C@@H](CCC(=O)O)C(=O)N[C@@H](CC(C)C)C(=O)N[C@@H](CCCNC(=N)N)C(=O)N[C@H]1CCCCNC(=O)CC[C@@H](C(N)=O)NC(=O)[C@H]([C@@H](C)O)NC(=O)[C@H](CC(C)C)NC(=O)[C@H](CCCNC(=N)N)NC1=O) | 98
9 | Ac-PSRLEEELR[dK]RLTE-NH2 (lactam 6-10; SMILES CC(=O)N1CCC[C@H]1C(=O)N[C@@H](CO)C(=O)N[C@@H](CCCNC(=N)N)C(=O)N[C@@H](CC(C)C)C(=O)N[C@@H](CCC(=O)O)C(=O)N[C@H]1CCC(=O)NCCCC[C@H](C(=O)N[C@@H](CCCNC(=N)N)C(=O)N[C@@H](CC(C)C)C(=O)N[C@H](C(=O)N[C@@H](CCC(=O)O)C(N)=O)[C@@H](C)O)NC(=O)[C@H](CCCNC(=N)N)NC(=O)[C@H](CC(C)C)NC(=O)[C@H](CCC(=O)O)NC1=O) | 100
10 | Ac-SRLEDELRKRLTE-NH2 (lactam 5-9; SMILES CC(=O)N[C@@H](CO)C(=O)N[C@@H](CCCNC(=N)N)C(=O)N[C@@H](CC(C)C)C(=O)N[C@@H](CCC(=O)O)C(=O)N[C@H]1CC(=O)NCCCC[C@@H](C(=O)N[C@@H](CCCNC(=N)N)C(=O)N[C@@H](CC(C)C)C(=O)N[C@H](C(=O)N[C@@H](CCC(=O)O)C(N)=O)[C@@H](C)O)NC(=O)[C@H](CCCNC(=N)N)NC(=O)[C@H](CC(C)C)NC(=O)[C@H](CCC(=O)O)NC1=O) | 95
11 | Ac-SRLEEELRKRLTE-NH2 (lactam 5-9; SMILES CC(=O)N[C@@H](CO)C(=O)N[C@@H](CCCNC(=N)N)C(=O)N[C@@H](CC(C)C)C(=O)N[C@@H](CCC(=O)O)C(=O)N[C@H]1CCC(=O)NCCCC[C@@H](C(=O)N[C@@H](CCCNC(=N)N)C(=O)N[C@@H](CC(C)C)C(=O)N[C@H](C(=O)N[C@@H](CCC(=O)O)C(N)=O)[C@@H](C)O)NC(=O)[C@H](CCCNC(=N)N)NC(=O)[C@H](CC(C)C)NC(=O)[C@H](CCC(=O)O)NC1=O) | 97
12 | Ac-PSRLEEELKRRLTE-NH2 (lactam 5-9; SMILES CC(=O)N1CCC[C@H]1C(=O)N[C@@H](CO)C(=O)N[C@@H](CCCNC(=N)N)C(=O)N[C@@H](CC(C)C)C(=O)N[C@H]1CCC(=O)NCCCC[C@@H](C(=O)N[C@@H](CCCNC(=N)N)C(=O)N[C@@H](CCCNC(=N)N)C(=O)N[C@@H](CC(C)C)C(=O)N[C@H](C(=O)N[C@@H](CCC(=O)O)C(N)=O)[C@@H](C)O)NC(=O)[C@H](CC(C)C)NC(=O)[C@H](CCC(=O)O)NC(=O)[C@H](CCC(=O)O)NC1=O) | 99
13 | Ac-PSRLECEL[dC]RRLTE-NH2 (disulfide 6-9; SMILES CC(=O)N1CCC[C@H]1C(=O)N[C@@H](CO)C(=O)N[C@@H](CCCNC(=N)N)C(=O)N[C@@H](CC(C)C)C(=O)N[C@@H](CCC(=O)O)C(=O)N[C@H]1CSSC[C@H](C(=O)N[C@@H](CCCNC(=N)N)C(=O)N[C@@H](CCCNC(=N)N)C(=O)N[C@@H](CC(C)C)C(=O)N[C@H](C(=O)N[C@@H](CCC(=O)O)C(N)=O)[C@@H](C)O)NC(=O)[C@H](CC(C)C)NC(=O)[C@H](CCC(=O)O)NC1=O) | 100
14 | Ac-SRLEEELKRRLTE-NH2 (lactam 5-8; SMILES CC(=O)N[C@@H](CO)C(=O)N[C@@H](CCCNC(=N)N)C(=O)N[C@@H](CC(C)C)C(=O)N[C@@H](CCC(=O)O)C(=O)N[C@H]1CCC(=O)NCCCC[C@@H](C(=O)N[C@@H](CCCNC(=N)N)C(=O)N[C@@H](CCCNC(=N)N)C(=O)N[C@@H](CC(C)C)C(=O)N[C@H](C(=O)N[C@@H](CCC(=O)O)C(N)=O)[C@@H](C)O)NC(=O)[C@H](CC(C)C)NC(=O)[C@H](CCC(=O)O)NC1=O) | 99

Bridge positions count the residues as written; N and C are the ends. Square brackets hold non-standard residues; d marks the D form. Peptide text beside a SMILES is read from it.
